Experimental data: PubChem BioAssay AID1224827 (NIAID, 2016)

Screen: 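Confirm genes whose knock-down changes LPS-driven TNF promoter activity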 (follow-up of hits)
System: RAW264.7 G9 mouse macrophage reporter clone
Reagents: single siRNA against mouse genes, 100 nM siRNA
Time to read-out: siRNA for 2 days, then LPS about 16 h
Challenge: bacterial lipopolysaccharide (LPS), 10 ng/ml, cells fixed after overnight (about 16 h) stimulation
Detection: 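Imaged nuclear TNF reporter intensity, background removed, scaled per plate and to non-targeting control wells, as z-scores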
Scale: TNF reporter z-score, mean and TNF reporter z-score: higher = stronger Tnf promoter reporter signal; gene median z, three same-vendor siRNAs: higher = stronger Tnf reporter signal for the gene
Hit rule: 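Active siRNA: replicate-mean z-score of 2 or more, or -2 or less; no calls for control wells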
Here is a random part of about 3,800 deposited reagents. Over the whole deposit, about 2,200 (57%) got an active call. 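Active means a strong reporter change in either direction; calls are per siRNA, not per gene; qiagen siRNAs gave weaker effects.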 The numbers tell different reagents against one gene apart.

no.	gene	reagent no.	TNF reporter z-score, mean	gene median z, three same-vendor siRNAs	TNF reporter z-score, repeat 1	TNF reporter z-score, repeat 2	call
1	Pakap (GeneID 677884)	1	-0.323	-0.623	-0.365	-0.28	inactive
2	Pakap (GeneID 677884)	2	-0.759	-0.623	-0.618	-0.899	inactive
3	Pakap (GeneID 677884)	3	-1.13	-0.623	-1.64	-0.627	inactive
4	Pakap (GeneID 677884)	4	0.197	-2.34	0.0369	0.356	inactive
5	Pakap (GeneID 677884)	5	-2.68	-2.34	-3.94	-1.41	active
6	Pakap (GeneID 677884)	6	-3.27	-2.34	-3.28	-3.26	active
7	Chaf1a (GeneID 27221)	1	-0.9	-1.97	-2.49	0.689	inactive
8	Chaf1a (GeneID 27221)	2	-1.97	-1.97	-2.23	-1.72	inactive
9	Chaf1a (GeneID 27221)	3	-2.23	-1.97	-3.23	-1.22	active
10	Chaf1a (GeneID 27221)	4	2.74	-0.238	5.47	0.00732	active
11	Chaf1a (GeneID 27221)	5	1.42	-0.238	3.33	-0.483	inactive
12	Chaf1a (GeneID 27221)	6	-1.93	-0.238	-1.8	-2.07	inactive
13	Stradb (GeneID 227154)	1	3.69	-0.296	3.43	3.95	active
14	Stradb (GeneID 227154)	2	-0.56	-0.296	-1.92	0.796	inactive
15	Stradb (GeneID 227154)	3	-2.11	-0.296	-2.83	-1.39	active
16	Stradb (GeneID 227154)	4	5.17	0.845	9.41	0.928	active
17	Stradb (GeneID 227154)	5	3.46	0.845	6.16	0.763	active
18	Stradb (GeneID 227154)	6	-1.05	0.845	-0.952	-1.15	inactive
19	Cdkn1a (GeneID 12575)	1	4.27	-3.2	2.26	6.28	active
20	Cdkn1a (GeneID 12575)	2	-3.2	-3.2	-3.49	-2.91	active
21	Cdkn1a (GeneID 12575)	3	-3.69	-3.2	-3.73	-3.65	active
22	Cdkn1a (GeneID 12575)	4	-1.15	-1.73	-1.51	-0.798	inactive
23	Cdkn1a (GeneID 12575)	5	-1.53	-1.73	-1.11	-1.96	inactive
24	Cdkn1a (GeneID 12575)	6	-2.54	-1.73	-2.32	-2.77	active

Part of the list above in another layout.
{"gene":"Stradb (GeneID 227154)","reagent no.":4,"TNF reporter z-score, mean":5.17,"gene median z, three same-vendor siRNAs":0.845,"TNF reporter z-score, repeat 1":9.41,"TNF reporter z-score, repeat 2":0.928,"call":"active"}
{"gene":"Stradb (GeneID 227154)","reagent no.":5,"TNF reporter z-score, mean":3.46,"gene median z, three same-vendor siRNAs":0.845,"TNF reporter z-score, repeat 1":6.16,"TNF reporter z-score, repeat 2":0.763,"call":"active"}
{"gene":"Stradb (GeneID 227154)","reagent no.":6,"TNF reporter z-score, mean":-1.05,"gene median z, three same-vendor siRNAs":0.845,"TNF reporter z-score, repeat 1":-0.952,"TNF reporter z-score, repeat 2":-1.15,"call":"inactive"}
{"gene":"Cdkn1a (GeneID 12575)","reagent no.":1,"TNF reporter z-score, mean":4.27,"gene median z, three same-vendor siRNAs":-3.2,"TNF reporter z-score, repeat 1":2.26,"TNF reporter z-score, repeat 2":6.28,"call":"active"}
{"gene":"Cdkn1a (GeneID 12575)","reagent no.":2,"TNF reporter z-score, mean":-3.2,"gene median z, three same-vendor siRNAs":-3.2,"TNF reporter z-score, repeat 1":-3.49,"TNF reporter z-score, repeat 2":-2.91,"call":"active"}
{"gene":"Cdkn1a (GeneID 12575)","reagent no.":3,"TNF reporter z-score, mean":-3.69,"gene median z, three same-vendor siRNAs":-3.2,"TNF reporter z-score, repeat 1":-3.73,"TNF reporter z-score, repeat 2":-3.65,"call":"active"}
{"gene":"Cdkn1a (GeneID 12575)","reagent no.":4,"TNF reporter z-score, mean":-1.15,"gene median z, three same-vendor siRNAs":-1.73,"TNF reporter z-score, repeat 1":-1.51,"TNF reporter z-score, repeat 2":-0.798,"call":"inactive"}

The results go on.
no.	gene	reagent no.	TNF reporter z-score, mean	gene median z, three same-vendor siRNAs	TNF reporter z-score, repeat 1	TNF reporter z-score, repeat 2	call
25	Abcb1a (GeneID 18671)	1	0.323	-3.08	0.933	-0.288	inactive
26	Abcb1a (GeneID 18671)	2	-3.08	-3.08	-4	-2.15	active
27	Abcb1a (GeneID 18671)	3	-5.37	-3.08	-5.51	-5.24	active
28	Abcb1a (GeneID 18671)	4	2.75	0.0899	4.44	1.07	active
29	Abcb1a (GeneID 18671)	5	0.0899	0.0899	0.516	-0.336	inactive
30	Abcb1a (GeneID 18671)	6	-1.05	0.0899	-1.02	-1.08	inactive
31	Gabrb1 (GeneID 14400)	1	4.18	-1.76	1.57	6.78	active
32	Gabrb1 (GeneID 14400)	2	-1.76	-1.76	-1.66	-1.85	inactive
33	Gabrb1 (GeneID 14400)	3	-2.61	-1.76	-2.23	-2.99	active
34	Gabrb1 (GeneID 14400)	4	2.88	2.43	4.75	1.01	active
35	Gabrb1 (GeneID 14400)	5	2.8	2.43	5.78	-0.19	active
36	Gabrb1 (GeneID 14400)	6	2.07	2.43	3.86	0.285	active
37	Or4x6 (GeneID 258339)	1	-2.23	-2.85	-2.27	-2.18	active
38	Or4x6 (GeneID 258339)	2	-2.37	-2.85	-3.49	-1.24	active
39	Or4x6 (GeneID 258339)	3	-3.45	-2.85	-3.44	-3.46	active
40	Or4x6 (GeneID 258339)	4	5.17	0.827	9.48	0.864	active
41	Or4x6 (GeneID 258339)	5	1.65	0.827	2.5	0.79	inactive
42	Or4x6 (GeneID 258339)	6	-4.17	0.827	-4.71	-3.64	active
